Several values for one entry are separate records, joined by “and”; a condition that tells them apart may be missing. Equal entries are not always repeated. Structures can show the parent of a compound that is named as a salt. ± gives the standard deviation of the averaged measurements. The list shows a part of the results. Most values come without repeats; read them as rough.
Tested on: RAW 264.7
Assay: cell viability (MTT) relative to vehicle control; higher = more viable cells
Settings: stimulus: HMGB1 5 ug/ml, 18 h
[1] = compound concentration: 1 ug/ml

| SMILES | cell viability (compound concentration: 3 uM) | cell viability [1] [%] |
| --- | --- | --- |
| CC[C@@H](C)C(=O)O[C@H]1[C@H](O)[C@H]2[C@@H](CN3C[C@@H](C)CC[C@H]3[C@@]2(C)O)[C@@H]2C[C@]34O[C@]5(O)[C@@H](OC(=O)[C@](C)(O)[C@@H](C)O)CC[C@@]3(C)[C@@H]5[C@@H](OC(C)=O)[C@@H](OC(C)=O)[C@H]4[C@@]21O (stereo in doubt) | 96.9% |  |
| C[N+](C)(C)CC#CCOC(=O)Nc1cccc(Cl)c1 | 101% |  |
| CN1C[C@@H](NS(=O)(=O)N(C)C)C[C@@H]2c3cccc4c3c(cn4C)C[C@H]21 [Mesulergine] | 106% |  |
| CCC(C)C1O[C@]2(C=C[C@@H]1C)C[C@@H]1CC(C/C=C(\C)[C@@H](OC3C[C@H](OC)[C@@H](OC4C[C@H](OC)[C@@H](O)[C@H](C)O4)[C@H](C)O3)[C@@H](C)/C=C/C=C3\COC4[C@H](O)C(C)=CC(C(=O)O1)[C@]34O)O2 (stereo partly drawn) [Avermectin B1a] | 96.7% |  |
| Oc1cccc2cccnc12 | 112% |  |
| COc1ccc(CCN)cc1OC [Homoveratrylamine] | 96.4% |  |
| CC1=C(O)C(=O)C=C2C1=CC=C1[C@@]2(C)CC[C@@]2(C)[C@@H]3C[C@](C)(C(=O)O)CC[C@]3(C)CC[C@]12C | 3.56% |  |
| OC1CCCCC1N1CCC(c2ccccc2)CC1 (racemic) [(±)-Vesamicol hydrochloride] | 111% |  |
| CCCN1C[C@H](CSC)C[C@@H]2c3cccc4[nH]cc(c34)C[C@H]21 [Pergolide] | 117% |  |
| CCCN1C[C@H](CSC)C[C@@H]2c3cccc4[nH]cc(c34)C[C@H]21 [Pergolide methanesulfonate] | 106% |  |
| CCCN1C[C@H](CSC)C[C@@H]2c3cccc4[nH]cc(c34)C[C@H]21 | 100% and 98.6% |  |
| CCCN1C[C@H](CSC)C[C@@H]2c3cccc4[nH]cc(c34)C[C@H]21 [Pergolide mesylate] | 96.1% | 92 |
| CCCCc1ccc(C(=O)O)nc1 [Fusaric acid] | 109% |  |
| CCCCc1ccc(C(=O)O)nc1 [Fusaric acid ; 5-butylpicolinic acid] |  | 103 |
| CN1CC[C@]23CCCC[C@H]2[C@H]1Cc1ccc(O)cc13 | 101% |  |
| N.N.[Cl][Pt][Cl] [Cisplatin] | 98.1% |  |
| N.N.[Cl][Pt][Cl] | 106 ± 8.1% |  |
| C=C(C)[C@@H]1[C@H]2OC(=O)[C@@H]1[C@]1(O)C[C@H]3O[C@]34C(=O)O[C@H]2[C@]14C.CC(C)(O)[C@@H]1[C@H]2OC(=O)[C@@H]1[C@]1(O)C[C@H]3O[C@]34C(=O)O[C@H]2[C@]14C [Picrotin - Picrotoxinin] | 96.2% |  |
| Oc1ccc2c3c1O[C@H]1c4[nH]c5c(c4C[C@@]4(O)[C@@H](C2)N(CC2CC2)CC[C@]314)C[C@@]1(O)[C@H]2Cc3ccc(O)c4c3[C@@]1(CCN2CC1CC1)[C@H]5O4 [nor-Binaltorphimine dihydrochloride] | 115% |  |
| COc1ccc2[nH]cc(CCN)c2c1 [5-Methoxytryptamine] | 100% |  |
| COc1ccc2[nH]cc(CCN)c2c1 [O-Methylserotonin hydrochloride] | 101% |  |
| C/C=C1/C[N@+]2(C)CC[C@]34C(=C(C=O)[C@H]1C[C@@H]32)Nc1ccccc14 |  | 104 |
| Cc1ncc(CNC(=O)N(CCCl)N=O)c(N)n1 [Nimustine hydrochloride] | 109% |  |
| Cc1ncc(CNC(=O)N(CCCl)N=O)c(N)n1 | 117 ± 15% |  |
| COC(=O)[C@]1(C)CC[C@]2(C)CC[C@]3(C)C4=CC=C5C(=CC(=O)C(O)=C5C)[C@]4(C)CC[C@@]3(C)[C@@H]2C1 | 10.9% |  |
| CC12CCC3C(CCC4=C(O)C(=O)CCC43C)C1CCC2=O (stereo not drawn) [4-Androsten-4-ol-3,17-dione] | 103% |  |

| SMILES | cell viability (compound concentration: 3 uM) | cell viability [1] [%] |
| --- | --- | --- |
| Cc1cc(O)ccc1Cl | 108% |  |
| C=C(C)[C@H]1CN[C@H](C(=O)O)[C@H]1CC(=O)O | 105% |  |
| C=C(C)[C@H]1CN[C@H](C(=O)O)[C@H]1CC(=O)O [Kainic acid] | 104% |  |
| C[C@@H]1CC[C@@]2(OC1)O[C@H]1[C@@H](O)[C@H]3[C@@H]4CC[C@H]5C[C@@H](O[C@@H]6O[C@H](CO)[C@H](O[C@@H]7O[C@H](CO)[C@@H](O)[C@H](O[C@@H]8OC[C@@H](O)[C@H](O)[C@H]8O)[C@H]7O[C@@H]7O[C@H](CO)[C@H](O)[C@H](O[C@@H]8O[C@H](CO)[C@@H](O)[C@H](O)[C@H]8O)[C@H]7O)[C@H](O)[C@H]6O)[C@H](O)C[C@]5(C)[C@H]4CC[C@]3(C)[C@H]1[C@@H]2C [Digitonin] |  | 106 |
| COc1ccc2c(c1)c(CCN1CCOCC1)c(C)n2C(=O)c1cccc(Cl)c1Cl | 118% |  |
| COc1ccc(CN2CCNCC2)c(OC)c1OC | 108% |  |
| COc1ccc(CN2CCNCC2)c(OC)c1OC [Trimetazidine dihydrochloride] | 91.8% |  |
| c1ccc2c(N3CCNCC3)cccc2c1 [1-(1-Naphthyl)piperazine hydrochloride] | 119% |  |
| CC[C@H]1CN2CC[C@H]1C[C@@H]2[C@@H](O)c1ccnc2ccc(OC)cc12 | 109% |  |
| CC[C@H]1CN2CC[C@H]1C[C@@H]2[C@@H](O)c1ccnc2ccc(OC)cc12 [Hydroquinidine] |  | 83.8 |
| CCCN(CCC)CCc1c[nH]c2ccc(C(N)=O)cc12 [N,N-Dipropyl-5-carboxamidotryptamine maleate] | 99.6% |  |
| O=C(N[C@H]1CN2CCC1CC2)c1ccc(Cl)cc1 | 100% |  |
| O=[N+]([O-])c1ccc2nc(N3CCNCC3)ccc2c1 [Quipazine, 6-nitro-, maleate] | 104% |  |
| C=C[C@H]1CN2CC[C@H]1C[C@H]2[C@H](OC(=O)OCC)c1ccnc2ccc(OC)cc12 | 115% |  |
| C[C@]12CC[C@H]3[C@@H](CCC4=CC(=O)CC[C@@H]43)[C@@H]1CC[C@@H]2O [Nandrolone] | 83.3% |  |
| C[C@]12CC[C@H]3[C@@H](CCC4=CC(=O)CC[C@@H]43)[C@@H]1CC[C@@H]2O [19-Nortestosterone] | 103% |  |
| C=CCN1C[C@H](C)N([C@H](c2ccc(C(=O)N(CC)CC)cc2)c2cccc(OC)c2)C[C@H]1C | 119% |  |
| O=[N+]([O-])O[C@@H]1CO[C@H]2[C@@H]1OC[C@@H]2O [Isosorbide mononitrate] | 95.5% |  |
| O=[N+]([O-])O[C@@H]1CO[C@H]2[C@@H]1OC[C@@H]2O | 98.3% |  |
| CC1=CC(=O)c2c(O)cccc2C1=O [Plumbagin] |  | 91 |
| CC(Cc1ccc(OCC(=O)O)cc1)NCC(O)c1cccc(Cl)c1 (stereo not drawn) | 87.2% |  |
| OC1CCCCC1N1CCC(c2ccccc2)CC1 (stereo not drawn) | 103% |  |
| NC(=O)c1ccc(N)nc1 | 98.4% |  |
| N[C@@H](Cc1ccc(N(CCCl)CCCl)cc1)C(=O)O [Melphalan] | 101 ± 1.6% |  |
| N[C@@H](Cc1ccc(N(CCCl)CCCl)cc1)C(=O)O | 107 ± 8.5% |  |
| CC(C)=CCOc1c2occc2cc2ccc(=O)oc12 [Imperatorin] | 94.8% |  |

| SMILES | cell viability (compound concentration: 3 uM) | cell viability [1] [%] |
| --- | --- | --- |
| CC[C@@]1(O)C[C@H](O[C@H]2C[C@H](N(C)C)[C@H](O)[C@H](C)O2)c2c(cc3c(c2O)C(=O)c2c(O)cccc2C3=O)[C@H]1C(=O)OC | 2.09% |  |
| CC(C)N(CCC(C(N)=O)(c1ccccc1)c1ccccn1)C(C)C (stereo not drawn) [Disopyramide] | 99.3 ± 6.1% |  |
| CC(C)N(CCC(C(N)=O)(c1ccccc1)c1ccccn1)C(C)C (stereo not drawn) [Disopyramide phosphate] | 95.8% |  |
| CC(C)N(CCC(C(N)=O)(c1ccccc1)c1ccccn1)C(C)C (stereo not drawn) | 96.2% |  |
| C[C@H](N)[C@H](O)c1ccc(O)c(O)c1 [Levonordefrin] | 116% |  |
| C[C@H](N)[C@H](O)c1ccc(O)c(O)c1 | 101% |  |
| N=C(N)NN [Aminoguanidine hemisulfate] | 101% |  |
| N=C(N)NN [Aminoguanidine hydrochloride] | 104% |  |
| CN1[C@@H]2CC[C@H]1C[C@@H](OC(=O)[C@H](CO)c1ccccc1)C2 [Hyoscyamine (L)] | 117% |  |
| CN1[C@@H]2CC[C@H]1C[C@@H](OC(=O)[C@H](CO)c1ccccc1)C2 [L-Hyoscyamine] | 100% |  |
| CN1[C@@H]2CC[C@H]1C[C@@H](OC(=O)[C@H](CO)c1ccccc1)C2 | 104% |  |
| Cc1ccc(-c2nc3ccc(C)cn3c2CC(=O)N(C)C)cc1 | 93.7% |  |
| O.O.O=c1cccc2n1CC1CC2CN(CCO)C1.[Cl][Cu][Cl] (stereo not drawn) |  | 99 |
| C[C@H](N)CN1CCc2ccc(Br)cc21 [VER-3323 hemifumarate salt] | 102% |  |
| C[C@H]1O[C@H](O[C@H]2[C@H](O)[C@@H](O)[C@@H](O)[C@H](O)[C@@H]2O)[C@@H](N)C[C@@H]1NC(=N)C(=O)O [Kasugamycin] | 107% |  |
| O=C1CN=C(c2ccccc2Cl)c2cc([N+](=O)[O-])ccc2N1 | 99.2% |  |
| O=[N+]([O-])c1cc(O)c(O)c([N+](=O)[O-])c1 [3,5-Dinitrocatechol] | 92.6% |  |
| CN[C@@H]1C[C@@H](c2ccc(Cl)c(Cl)c2)c2ccccc21 [Indatraline hydrochloride] | 87.8% |  |
| COc1ccc2c(c1)[C@]13CCCC[C@@H]1[C@H](C2)N(C)CC3 [Dextromethorphan] | 103% |  |
| COc1ccc2c(c1)[C@]13CCCC[C@@H]1[C@H](C2)N(C)CC3 | 97.4% |  |
| COc1ccc2c(c1)[C@]13CCCC[C@@H]1[C@H](C2)N(C)CC3 [d-3-Methoxy-N-methylmorphinan hydrobromide] | 97% |  |
| COc1ccc2c(c1)[C@]13CCCC[C@@H]1[C@H](C2)N(C)CC3 [Dextromethorphan hydrobromide monohydrate] | 103 ± 11% |  |
| Cc1ccc(S(=O)(=O)N2CC3CC(C2)c2cccc(=O)n2C3)cc1 (stereo not drawn) |  | 110 |
| CC1=NCCc2c1[nH]c1cc(O)ccc21 [Harmalol hydrochloride dihydrate] | 113% |  |
| CC1=NCCc2c1[nH]c1cc(O)ccc21 [Harmalol] |  | 111 |

Reformatted with bars between the fields: part of the list above
SMILES | cell viability (compound concentration: 3 uM) | cell viability [1] [%]
COc1ccc2[nH]cc(CCN)c2c1 [5-Methoxytryptamine] | 100% | 
CC12CCC3C(CCC4=C(O)C(=O)CCC43C)C1CCC2=O (stereo not drawn) [4-Androsten-4-ol-3,17-dione] | 103% | 
C[C@]12CC[C@H]3[C@@H](CCC4=CC(=O)CC[C@@H]43)[C@@H]1CC[C@@H]2O [Nandrolone] | 83.3% | 
C[C@H](N)[C@H](O)c1ccc(O)c(O)c1 [Levonordefrin] | 116% | 
CN1[C@@H]2CC[C@H]1C[C@@H](OC(=O)[C@H](CO)c1ccccc1)C2 | 104% | 
CC1=NCCc2c1[nH]c1cc(O)ccc21 [Harmalol] |  | 111

— the supplement of paper PMC3682954
